Laboratory results reported in publication PMC9064079.
Results are given in words; binding and its absence hold for the method and conditions named. In cells and extracts the contact can be indirect. Some results given as binding are weak or reduced against the parent protein; the word gives no strength.

The chains behind the UniProt entries cited, without tags or fusion partners.
UniProt P06733: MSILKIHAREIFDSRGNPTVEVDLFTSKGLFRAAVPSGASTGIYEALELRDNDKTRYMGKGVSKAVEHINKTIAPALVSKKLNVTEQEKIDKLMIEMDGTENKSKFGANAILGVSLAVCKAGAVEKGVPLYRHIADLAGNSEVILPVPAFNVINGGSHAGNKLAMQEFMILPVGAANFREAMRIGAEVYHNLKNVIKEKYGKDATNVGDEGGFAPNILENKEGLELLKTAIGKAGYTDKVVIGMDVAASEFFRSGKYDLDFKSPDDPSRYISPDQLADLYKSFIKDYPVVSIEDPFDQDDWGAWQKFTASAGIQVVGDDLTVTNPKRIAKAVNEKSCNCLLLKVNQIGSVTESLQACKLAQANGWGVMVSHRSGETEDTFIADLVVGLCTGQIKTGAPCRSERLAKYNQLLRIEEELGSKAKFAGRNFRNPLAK
UniProt P35579: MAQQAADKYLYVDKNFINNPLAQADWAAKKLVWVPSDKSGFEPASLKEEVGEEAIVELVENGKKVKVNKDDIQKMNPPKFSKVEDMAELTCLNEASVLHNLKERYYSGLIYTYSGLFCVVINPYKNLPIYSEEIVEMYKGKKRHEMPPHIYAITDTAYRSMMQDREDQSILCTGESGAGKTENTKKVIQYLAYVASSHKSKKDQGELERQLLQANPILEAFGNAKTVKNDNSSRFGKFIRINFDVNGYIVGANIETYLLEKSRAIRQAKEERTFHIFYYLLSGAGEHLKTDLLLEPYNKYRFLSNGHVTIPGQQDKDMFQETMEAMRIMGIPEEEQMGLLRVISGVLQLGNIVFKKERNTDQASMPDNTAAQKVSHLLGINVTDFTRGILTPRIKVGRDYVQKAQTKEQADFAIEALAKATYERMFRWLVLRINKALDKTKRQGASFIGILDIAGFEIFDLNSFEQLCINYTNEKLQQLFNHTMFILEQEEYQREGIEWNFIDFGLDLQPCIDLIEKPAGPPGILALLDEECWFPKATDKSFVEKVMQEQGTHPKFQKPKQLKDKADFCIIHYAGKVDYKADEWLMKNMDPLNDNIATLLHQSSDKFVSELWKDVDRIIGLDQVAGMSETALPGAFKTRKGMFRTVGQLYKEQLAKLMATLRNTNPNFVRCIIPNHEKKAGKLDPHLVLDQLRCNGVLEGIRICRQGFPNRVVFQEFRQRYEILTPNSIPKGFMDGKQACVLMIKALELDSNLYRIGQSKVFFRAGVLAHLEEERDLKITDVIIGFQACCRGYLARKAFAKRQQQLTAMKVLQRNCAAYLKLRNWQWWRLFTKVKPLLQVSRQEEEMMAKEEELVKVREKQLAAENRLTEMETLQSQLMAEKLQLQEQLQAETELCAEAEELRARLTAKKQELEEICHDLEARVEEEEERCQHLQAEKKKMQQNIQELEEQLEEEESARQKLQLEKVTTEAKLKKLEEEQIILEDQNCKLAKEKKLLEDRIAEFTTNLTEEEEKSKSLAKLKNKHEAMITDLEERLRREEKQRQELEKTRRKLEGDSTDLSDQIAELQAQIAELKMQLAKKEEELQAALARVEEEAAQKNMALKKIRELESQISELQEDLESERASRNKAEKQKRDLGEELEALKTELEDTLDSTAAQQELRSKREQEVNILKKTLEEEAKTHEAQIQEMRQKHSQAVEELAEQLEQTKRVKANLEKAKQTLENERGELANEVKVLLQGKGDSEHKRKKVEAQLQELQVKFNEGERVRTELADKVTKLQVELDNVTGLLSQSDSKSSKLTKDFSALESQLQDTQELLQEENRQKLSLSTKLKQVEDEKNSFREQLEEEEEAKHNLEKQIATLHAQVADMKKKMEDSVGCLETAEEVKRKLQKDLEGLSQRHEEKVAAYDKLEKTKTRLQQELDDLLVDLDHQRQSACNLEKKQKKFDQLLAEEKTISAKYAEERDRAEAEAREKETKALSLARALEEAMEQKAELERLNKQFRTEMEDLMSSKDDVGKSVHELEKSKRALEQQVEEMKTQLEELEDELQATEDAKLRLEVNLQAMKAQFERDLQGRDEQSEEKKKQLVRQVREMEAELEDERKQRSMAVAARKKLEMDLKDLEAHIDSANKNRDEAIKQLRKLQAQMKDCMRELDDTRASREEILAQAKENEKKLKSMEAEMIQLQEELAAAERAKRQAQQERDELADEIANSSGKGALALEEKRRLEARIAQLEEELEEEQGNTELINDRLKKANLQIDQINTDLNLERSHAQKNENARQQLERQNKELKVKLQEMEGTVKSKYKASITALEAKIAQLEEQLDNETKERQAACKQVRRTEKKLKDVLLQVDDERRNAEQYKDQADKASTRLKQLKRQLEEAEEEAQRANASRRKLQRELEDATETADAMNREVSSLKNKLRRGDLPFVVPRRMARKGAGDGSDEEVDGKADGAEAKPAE

Assays:
[1] = target: V5-tagged MT-3 (human) (UniProt P25713); assay: co-IP; anti-V5 antibody with lysate of HK-2 cells expressing MT-3-V5 (1000 ug, pre-cleared), Protein A/G magnetic beads (legend: antibody cross-linked to agarose beads); washes 25 mM Tris-HCl, 150 mM NaCl, 0.05% Tween-20, pH 7.4; western blotting
[2] = target: Purified human Zn7-MT-3 (metallothionein 3) (human) (UniProt P25713); assay: pull-down; Zn7-MT-3 cross-linked agarose beads incubated with HK-2 lysate; eluates read by SDS-PAGE and western blotting; only the target purified

binding [1] | binding [2] | Molecule
binds | binds | Enolase 1 (from UniProt P06733 1-434) (enzyme)
binds | – | Myosin heavy chain-9, non-muscle (from UniProt P35579 1-1960)
– | binds | Aldolase A (enzyme, UniProt P04075 1-364) MPYQYPALTPEQKKELSDIAHRIVAPGKGILAADESTGSIAKRLQSIGTENTEENRRFYRQLLLTADDRVNPCIGGVILFHETLYQKADDGRPFPQVIKSKGGVVGIKVDKGVVPLAGTNGETTTQGLDGLSERCAQYKKDGADFAKWRCVLKIGEHTPSALAIMENANVLARYASICQQNGIVPIVEPEILPDGDHDLKRCQYVTEKVLAAVYKALSDHHIYLEGTLLKPNMVTPGHACTQKFSHEEIAMATVTALRRTVPPAVTGITFLSGGQSEEEASINLNAINKCPLLKPWALTFSYGRALQASALKAWGGKKENLKAAQEEYVKRALANSLACQGKYTPSGQAGAAASESLFVSNHAY
